Patent US20200317808A1 (AbbVie / Abbott, published 2020)
These are yes or no findings as the source states them, for the method shown. Some entries that bind do so weakly or less than the wild type.

Target: T1, cynomolgus PD-1 Fc fusion (cynomolgus monkey, UniProt B0LAJ3 25-170)
T1 construct: also called Cyno PD-1 (ELISA)
Test: ELISA on plate bound cynomolgus PD-1 Fc fusion

binding: binds
B1: Humanized 12A11.2b with M99L in CDR-H3 (antibody, V domains shown)
VH: EIQLVQSGAEVKKPGSSVKVSCKASGYTFTHYGMNWVRQAPGQGLEWVGWVNTYTGEPTYADDFKGRLTFTLDTSTSTAYMELSSLRSEDTAVYYCTREGEGLGFGDWGQGTTVTVSS
VL: DVVMTQSPLSLPVTPGEPASISCRSSQSIVHSHGDTYLEWYLQKPGQSPQLLIYKVSNRFSGVPDRFSGSGSGTDFTLKISRVEAEDVGVYYCFQGSHIPVTFGQGTKLEIK
notes: It was detected with anti-human Fab and captured with anti-human IgG Fc; also called Hu12A11.2b4; humanized antibody 12A11.2b M99L
